Measurements reported in PubChem BioAssay AID1259254 (NCATS, 2017)
This is a random part of about 59,000 reagents. Of all reagents, about 1,550 (2.6%) were called active. 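G2 share is only a proxy for re-replication; each gene was hit by three separate siRNAs, and active genes were retested.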 Entries without a mark were called inactive. The numbers tell different reagents against one gene apart. Further read-outs or replicates are left out here. The record does not give: the amount of reagent.

Test: 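Genome-wide screen for genes that prevent DNA re-replication in cancer cells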 (primary screen)
Cell system: human HCT116 colorectal cancer cells
Knock-down reagent: single siRNA against human genes
Duration: 3 days
Detection: 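Imaged Hoechst DNA stain sorts each cell into a cycle phase by DNA amount; per plate, G2 fraction set to 0% for non-targeting and 100% for GMNN siRNA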
Direction: G2 robust z-score and G2 cells, % of GMNN control: higher = more G2 cells, more excess DNA replication
Call rule: 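Active siRNAs have a G2 robust z of 5 or more median absolute deviations over the median, which in these data means about 38% or higher of GMNN control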

After knock-down of IRF4 (interferon regulatory factor 4) #1 the results were G2 robust z-score 2.56; G2 cells, % of GMNN control 21.
IRF4 (interferon regulatory factor 4) #2 showed G2 robust z-score -0.933; G2 cells, % of GMNN control -3.59.
With knock-down of IRF4 (interferon regulatory factor 4) #3, the screen gave G2 robust z-score -0.0162; G2 cells, % of GMNN control 2.85.
Knock-down of SLC49A3 #1 resulted in: G2 robust z-score -0.549; G2 cells, % of GMNN control -0.892.
For SLC49A3 #2, the values are G2 robust z-score 1.92; G2 cells, % of GMNN control 16.5.
Silencing of SLC49A3 #3 resulted in: G2 robust z-score -0.119; G2 cells, % of GMNN control 2.13.
Knock-down of FAM151B (family with sequence similarity 151 member B) #1 resulted in: G2 robust z-score -0.756; G2 cells, % of GMNN control -2.35.
After knock-down of FAM151B (family with sequence similarity 151 member B) #2, the record shows G2 robust z-score 0.354; G2 cells, % of GMNN control 5.46.
After knock-down of FAM151B (family with sequence similarity 151 member B) #3 the results were G2 robust z-score 0.0433; G2 cells, % of GMNN control 3.27.
Against LRPAP1 (LDL receptor related protein associated protein 1) #1 the deposit lists G2 robust z-score -0.992; G2 cells, % of GMNN control -4.01.
LRPAP1 (LDL receptor related protein associated protein 1) #2 gave G2 robust z-score 0.819; G2 cells, % of GMNN control 8.73.
Depletion of LRPAP1 (LDL receptor related protein associated protein 1) #3 came out at: G2 robust z-score -0.696; G2 cells, % of GMNN control -1.93.
CLDN16 (claudin 16) #1 scored G2 robust z-score -0.194; G2 cells, % of GMNN control 1.6.
CLDN16 (claudin 16) #2 scored G2 robust z-score 1.05; G2 cells, % of GMNN control 10.4.
For CLDN16 (claudin 16) #3 the deposit lists G2 robust z-score 2.7; G2 cells, % of GMNN control 22.

3 entries from above, arranged by “G2 robust z-score”, descending:
SLC49A3 #2 | G2 robust z-score = 1.92; G2 cells, % of GMNN control = 16.5
SLC49A3 #3 | G2 robust z-score = -0.119; G2 cells, % of GMNN control = 2.13
SLC49A3 #1 | G2 robust z-score = -0.549; G2 cells, % of GMNN control = -0.892

The list goes on:
Against FBXL12 (F-box and leucine rich repeat protein 12) #1, the entry reads G2 robust z-score -0.274; G2 cells, % of GMNN control 1.04.
With knock-down of FBXL12 (F-box and leucine rich repeat protein 12) #2 the results were G2 robust z-score 0.542; G2 cells, % of GMNN control 6.78.
FBXL12 (F-box and leucine rich repeat protein 12) #3 scored G2 robust z-score -0.108; G2 cells, % of GMNN control 2.21.
ATP6V0B (ATPase H+ transporting V0 subunit b) #1 showed G2 robust z-score 0.827; G2 cells, % of GMNN control 8.79.
ATP6V0B (ATPase H+ transporting V0 subunit b) #2 gave G2 robust z-score 0.08; G2 cells, % of GMNN control 3.53.
For ATP6V0B (ATPase H+ transporting V0 subunit b) #3, the values are G2 robust z-score -0.173; G2 cells, % of GMNN control 1.75.
Against BKGD (beta-keto-L-gulonate decarboxylase) #1, the values are G2 robust z-score -1.31; G2 cells, % of GMNN control -6.25.
After knock-down of BKGD (beta-keto-L-gulonate decarboxylase) #2, the screen gave G2 robust z-score -0.696; G2 cells, % of GMNN control -1.93.
BKGD (beta-keto-L-gulonate decarboxylase) #3 showed G2 robust z-score -0.248; G2 cells, % of GMNN control 1.22.
